{
  "source": "PubChem BioAssay AID248",
  "about": "(DTP/NCI, 2004)",
  "system": "L1210 leukemia ip in BDF1 mice, survival T/C",
  "test": "NCI In Vivo Anticancer Drug Screen. Data for tumor model L1210 Leukemia (intraperitoneal) in B6D2F1 (BDF1) mice",
  "settings": "higher T/C = longer survival",
  "note": "The list shows only some results of the screen, not a fair sample: it is rich in T/C values a quarter to a half above the control, in often repeated tests (any T/C) and in doses without a T/C. Further doses and runs are listed elsewhere. T/C is the treated group as % of the vehicle group. Some doses have a count of surviving animals in place of a T/C: the source holds a T/C of zero for them, seemingly a mark for toxic or unscored doses. Some doses without a T/C left all or most animals alive at the check, yet need not have been tolerated: the source hardly ever lists a survival T/C far under the control, and the zero likely stands for such cases as well. Counts of survivors are from the toxicity check (mostly the fifth day) where no day follows; animals may have died later. Schedules are NCI's codes, read here as Q, the interval in days (D) or hours (H), X, the number of doses. Some entries were tested several times; the results are listed from low to high. Some schedule codes hold Z or #, which are not explained here. Where survival is the endpoint, the PubChem record calls one and a half times the control and up active, and a quarter to a half above the control has no call in these data; cut-offs in other NCI protocols can differ. Some T/C values are followed by the survivors on the day toxicity was checked, most often the fifth; where none is given, no animal had died by that day.",
  "data": [
    {"compound": "O=NN(CCCl)C(=O)NCCCl", "values": [
      {"measurement": "survivor count", "setting": "T/C endpoint: mean survival time, dose: 96.0 mg/kg/injection, schedule: Q01DX009 (sc), vehicle: saline", "value": "0 of 10"},
      {"measurement": "survivor count", "setting": "T/C endpoint: mean survival time, dose: 96.0 mg/kg/injection, schedule: Q## X003 (ip), vehicle: saline", "value": "8 of 10"},
      {"measurement": "survivor count", "setting": "T/C endpoint: mean survival time, dose: 96.0 mg/kg/injection, schedule: Q## X003 (oral), vehicle: saline", "value": "8 of 10"},
      {"measurement": "survivor count", "setting": "T/C endpoint: mean survival time, dose: 96.0 mg/kg/injection, schedule: Q## X008 (ip), vehicle: saline", "value": "10 of 10"},
      {"measurement": "survivor count", "setting": "T/C endpoint: mean survival time, dose: 96.0 mg/kg/injection, schedule: Q## X024 (ip), vehicle: saline", "value": "10 of 10"},
      {"measurement": "survivor count", "setting": "T/C endpoint: mean survival time, dose: 96.0 mg/kg/injection, schedule: Q## X024 (oral), vehicle: saline", "value": "9 of 10"},
      {"measurement": "survivor count", "setting": "T/C endpoint: mean survival time, dose: 100.0 mg/kg/injection, schedule: Q01DX Z (ip), vehicle: carboxymethylcellulose (CMC)", "value": "0 of 6"},
      {"measurement": "survivor count", "setting": "T/C endpoint: mean survival time, dose: 128.0 mg/kg/injection, schedule: Q01DX Z (iv), vehicle: saline", "value": "6 of 6"},
      {"measurement": "survivor count", "setting": "T/C endpoint: mean survival time, dose: 128.0 mg/kg/injection, schedule: Q01DX Z (oral), vehicle: saline", "value": "5 of 6"},
      {"measurement": "survivor count", "setting": "T/C endpoint: mean survival time, dose: 128.0 mg/kg/injection, schedule: Q#A X Z (oral), vehicle: saline", "value": "0 of 6"},
      {"measurement": "survivor count", "setting": "T/C endpoint: mean survival time, dose: 192.0 mg/kg/injection, schedule: Q01DX001 (ip), vehicle: saline", "value": "0 of 10 and 3 of 10"},
      {"measurement": "survivor count", "setting": "T/C endpoint: mean survival time, dose: 192.0 mg/kg/injection, schedule: Q01DX001 (oral), vehicle: saline", "value": "0 of 10"},
      {"measurement": "survivor count", "setting": "T/C endpoint: mean survival time, dose: 192.0 mg/kg/injection, schedule: Q01DX005 (ip), vehicle: saline", "value": "0 of 10"},
      {"measurement": "survivor count", "setting": "T/C endpoint: mean survival time, dose: 192.0 mg/kg/injection, schedule: Q01DX005 (oral), vehicle: saline", "value": "0 of 10"},
      {"measurement": "survivor count", "setting": "T/C endpoint: mean survival time, dose: 192.0 mg/kg/injection, schedule: Q01DX009 (ip), vehicle: saline", "value": "0 of 10"},
      {"measurement": "survivor count", "setting": "T/C endpoint: mean survival time, dose: 192.0 mg/kg/injection, schedule: Q01DX009 (oral), vehicle: saline", "value": "0 of 10"},
      {"measurement": "survivor count", "setting": "T/C endpoint: mean survival time, dose: 192.0 mg/kg/injection, schedule: Q01DX009 (sc), vehicle: saline", "value": "0 of 10"},
      {"measurement": "survivor count", "setting": "T/C endpoint: mean survival time, dose: 192.0 mg/kg/injection, schedule: Q03DX Z (oral), vehicle: saline", "value": "6 of 6"},
      {"measurement": "survivor count", "setting": "T/C endpoint: mean survival time, dose: 192.0 mg/kg/injection, schedule: Q## X003 (ip), vehicle: saline", "value": "0 of 10"},
      {"measurement": "survivor count", "setting": "T/C endpoint: mean survival time, dose: 192.0 mg/kg/injection, schedule: Q## X003 (oral), vehicle: saline", "value": "3 of 10"},
      {"measurement": "survivor count", "setting": "T/C endpoint: mean survival time, dose: 192.0 mg/kg/injection, schedule: Q## X008 (ip), vehicle: saline", "value": "0 of 10"},
      {"measurement": "survivor count", "setting": "T/C endpoint: mean survival time, dose: 192.0 mg/kg/injection, schedule: Q## X008 (oral), vehicle: saline", "value": "0 of 10"},
      {"measurement": "survivor count", "setting": "T/C endpoint: mean survival time, dose: 192.0 mg/kg/injection, schedule: Q## X024 (ip), vehicle: saline", "value": "0 of 10"},
      {"measurement": "survivor count", "setting": "T/C endpoint: mean survival time, dose: 192.0 mg/kg/injection, schedule: Q## X024 (oral), vehicle: saline", "value": "1 of 10"},
      {"measurement": "survivor count", "setting": "T/C endpoint: mean survival time, dose: 256.0 mg/kg/injection, schedule: Q01DX Z (oral), vehicle: saline", "value": "4 of 6"},
      {"measurement": "survivor count", "setting": "T/C endpoint: mean survival time, dose: 384.0 mg/kg/injection, schedule: Q01DX001 (ip), vehicle: saline", "value": "0 of 10"},
      {"measurement": "survivor count", "setting": "T/C endpoint: mean survival time, dose: 384.0 mg/kg/injection, schedule: Q01DX001 (oral), vehicle: saline", "value": "0 of 10"},
      {"measurement": "survivor count", "setting": "T/C endpoint: mean survival time, dose: 384.0 mg/kg/injection, schedule: Q01DX009 (sc), vehicle: saline", "value": "0 of 10"},
      {"measurement": "survivor count", "setting": "T/C endpoint: mean survival time, dose: 384.0 mg/kg/injection, schedule: Q03DX Z (oral), vehicle: saline", "value": "6 of 6"},
      {"measurement": "survivor count", "setting": "T/C endpoint: mean survival time, dose: 384.0 mg/kg/injection, schedule: Q## X003 (ip), vehicle: saline", "value": "0 of 10"},
      {"measurement": "survivor count", "setting": "T/C endpoint: mean survival time, dose: 384.0 mg/kg/injection, schedule: Q## X003 (oral), vehicle: saline", "value": "1 of 10"},
      {"measurement": "survivor count", "setting": "T/C endpoint: mean survival time, dose: 384.0 mg/kg/injection, schedule: Q## X008 (ip), vehicle: saline", "value": "0 of 10"},
      {"measurement": "survivor count", "setting": "T/C endpoint: mean survival time, dose: 384.0 mg/kg/injection, schedule: Q## X008 (oral), vehicle: saline", "value": "0 of 10"},
      {"measurement": "survivor count", "setting": "T/C endpoint: mean survival time, dose: 384.0 mg/kg/injection, schedule: Q## X024 (ip), vehicle: saline", "value": "0 of 10"},
      {"measurement": "survivor count", "setting": "T/C endpoint: mean survival time, dose: 384.0 mg/kg/injection, schedule: Q## X024 (oral), vehicle: saline", "value": "0 of 10"},
      {"measurement": "survivor count", "setting": "T/C endpoint: mean survival time, dose: 768.0 mg/kg/injection, schedule: Q03DX Z (oral), vehicle: saline", "value": "3 of 6"},
      {"measurement": "T/C", "setting": "T/C endpoint: median survival time, dose: 1.5 mg/kg/injection, schedule: Q01DX009 (ip), vehicle: saline", "value": "130 % of control"},
      {"measurement": "T/C", "setting": "T/C endpoint: median survival time, dose: 8.0 mg/kg/injection, schedule: Q01DX001 (ip), vehicle: Klucel (hydroxypropylcellulose) (HPC)", "value": "126 and 144 % of control"},
      {"measurement": "T/C", "setting": "T/C endpoint: median survival time, dose: 10.0 mg/kg/injection, schedule: Q01DX001 (ip), vehicle: saline, evaluated on day 7", "value": "145 % of control"},
      {"measurement": "T/C", "setting": "T/C endpoint: median survival time, dose: 10.0 mg/kg/injection, schedule: Q01DX001 (ip), vehicle: saline, evaluated on day 35", "value": "140 % of control"},
      {"measurement": "T/C", "setting": "T/C endpoint: median survival time, dose: 10.0 mg/kg/injection, schedule: Q01DX001 (ip), vehicle: saline, evaluated on day 60", "value": "144 % of control"},
      {"measurement": "T/C", "setting": "T/C endpoint: median survival time, dose: 12.0 mg/kg/injection, schedule: Q01DX009 (ip), vehicle: saline, evaluated on day 30", "value": "147 % of control [7 of 8 alive]"},
      {"measurement": "T/C", "setting": "T/C endpoint: median survival time, dose: 12.0 mg/kg/injection, schedule: Q01DX009 (ip), vehicle: saline, evaluated on day 32", "value": "135 % of control"},
      {"measurement": "T/C", "setting": "T/C endpoint: median survival time, dose: 15.0 mg/kg/injection, schedule: Q01DX001 (ip), vehicle: saline", "value": "144 % of control"},
      {"measurement": "T/C", "setting": "T/C endpoint: median survival time, dose: 15.0 mg/kg/injection, schedule: Q01DX009 (ip), vehicle: saline + alcohol", "value": "126 and 135 % of control"},
      {"measurement": "survivor count", "setting": "T/C endpoint: median survival time, dose: 48.0 mg/kg/injection, schedule: Q01DX009 (ip), vehicle: saline", "value": "6 of 8 and 7 of 8"},
      {"measurement": "T/C", "setting": "T/C endpoint: median survival time, dose: 64.0 mg/kg/injection, schedule: Q01DX001 (ip), vehicle: Klucel (hydroxypropylcellulose) (HPC)", "value": "134 % of control"},
      {"measurement": "survivor count", "setting": "T/C endpoint: median survival time, dose: 80.0 mg/kg/injection, schedule: Q01DX001 (ip), vehicle: saline + alcohol", "value": "3 of 6 and 5 of 6"},
      {"measurement": "survivor count", "setting": "T/C endpoint: median survival time, dose: 80.0 mg/kg/injection, schedule: Q01DX001 (ip), vehicle: saline", "value": "8 of 8"}
    ]}
  ]
}
